Patent US11889833B2, “Protoporphyrinogen oxidase inhibitors” (Enko Chem, Inc., priority 2022, dated 2024)
Some of these results come from one statement about several compounds together.

molecular target: T1, mutant ΔG210-AmPPO (Amaranthus tuberculatus, UniProt Q0NZW9, DEL211-211, form not given); format: biochemical, Amaranthus tuberculatum; settings: read-out: IC50 in the ΔG210 PPO in vitro assay
T1 sequence (Q0NZW9 with tags, fused parts or gaps DEL211-211): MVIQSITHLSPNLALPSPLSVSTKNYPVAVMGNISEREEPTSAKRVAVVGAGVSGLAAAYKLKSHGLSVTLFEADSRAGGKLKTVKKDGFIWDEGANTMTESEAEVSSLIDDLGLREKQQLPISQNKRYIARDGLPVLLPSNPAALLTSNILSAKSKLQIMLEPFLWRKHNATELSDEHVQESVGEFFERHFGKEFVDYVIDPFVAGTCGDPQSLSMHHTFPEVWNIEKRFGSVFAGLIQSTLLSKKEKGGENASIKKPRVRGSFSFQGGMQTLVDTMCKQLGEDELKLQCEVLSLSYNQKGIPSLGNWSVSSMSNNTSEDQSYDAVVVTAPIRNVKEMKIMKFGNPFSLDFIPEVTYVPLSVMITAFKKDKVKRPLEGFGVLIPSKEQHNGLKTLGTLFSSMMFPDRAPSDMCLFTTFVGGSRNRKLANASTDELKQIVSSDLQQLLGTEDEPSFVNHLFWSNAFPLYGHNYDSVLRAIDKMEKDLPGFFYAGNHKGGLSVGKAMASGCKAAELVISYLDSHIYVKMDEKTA

| SMILES | IC50 |
| --- | --- |
| C=C(C)C(=O)OCCOC(=O)[C@H](C)Sc1cc(-c2c(F)c(F)c(F)c(F)c2F)c(F)cc1Cl [Compound 13, (S)-2-((2-((4-chloro-2′,3′,4′,5′,6,6′-hexafluoro-[1,1′-biphenyl]-3-yl)thio)propanoyl)oxy)ethyl methacrylate] | < 0.1 µM |
| C[C@@H](Sc1cc(-c2c(F)c(F)c(F)c(F)c2F)c(F)cc1Cl)C(=O)N1CCC[C@H]1C(=O)O [Compound 12, ((R)-2-((4-chloro-2′,3′,4′,5′,6,6′-hexafluoro-[1,1′-biphenyl]-3-yl)thio)propanoyl)-L-proline] | < 1 µM |
| CC(=O)NS(=O)(=O)c1cc(-c2c(F)c(F)c(F)c(F)c2F)c(F)cc1Cl [Compound 17, N-((4-chloro-2′,3′,4′,5′,6,6′-hexafluoro-[1,1′-biphenyl]-3-yl)sulfonyl)acetamide] | < 0.1 µM |
| CC(C)C(=O)NS(=O)(=O)c1cc(-c2c(F)c(F)c(F)c(F)c2F)c(F)cc1Cl [Compound 19, N-((4-chloro-2′,3′,4′,5′,6,6′-hexafluoro-[1,1′-biphenyl]-3-yl)sulfonyl)isobutyramide] | < 0.1 µM |
| C[C@H](Sc1cc(-c2c(F)c(F)c(F)c(F)c2F)c(F)cc1Cl)C(=O)NCCC(=O)O [Compound 7, (S)-3-(2-((4-chloro-2′,3′,4′,5′,6,6′-hexafluoro-[1,1′-biphenyl]-3-yl)thio)propanamido)propanoic acid] | < 1 µM |
| COC(=O)[C@@H]1CCCN1C(=O)[C@@H](C)Sc1cc(-c2c(F)c(F)c(F)c(F)c2F)c(F)cc1Cl [Compound 10, methyl ((R)-2-((4-chloro-2′,3′,4′,5′,6,6′-hexafluoro-[1,1′-biphenyl]-3-yl)thio)propanoyl)-L-prolinate] | < 1 µM |
| CC(C)C(=O)NS(=O)(=O)c1cc(-c2c(F)cc(F)c(F)c2F)c(F)cc1Cl [Compound 59, N-((4-chloro-2′,3′,4′,6,6′-pentafluoro-[1,1′-biphenyl]-3-yl)sulfonyl)isobutyramide] | < 0.1 µM |
| CCC(=O)NS(=O)(=O)c1cc(-c2c(F)cc(F)c(F)c2F)c(Cl)cc1Cl [Compound 51, N-((4,6-dichloro-2′,3′,4′,6′-tetrafluoro-[1,1′-biphenyl]-3-yl)sulfonyl)propionamide] | < 0.1 µM |
| O=C(NS(=O)(=O)c1cc(-c2c(F)cc(F)c(F)c2F)c(F)cc1Cl)Oc1ccccc1 [Compound 33, phenyl ((4-chloro-2′,3′,4′,6,6′-pentafluoro-[1,1′-biphenyl]-3-yl)sulfonyl)carbamate] | < 0.1 µM |
| CN(C)C(=O)NS(=O)(=O)c1cc(-c2c(F)cc(F)c(F)c2F)c(F)cc1Cl [Compound 66, 4-chloro-N-(dimethylcarbamoyl)-2′,3′,4′,6,6′-pentafluoro-[1,1′-biphenyl]-3-sulfonamide] | < 1 µM |
| O=C(CO)NS(=O)(=O)c1cc(-c2c(F)cc(F)c(F)c2F)c(F)cc1Cl [Compound 43, N-((4-chloro-2′,3′,4′,6,6′-pentafluoro-[1,1′-biphenyl]-3-yl)sulfonyl)-2-hydroxyacetamide] | < 1 µM |
| Fc1cc(Cl)c(SCc2ccccc2)nc1-c1c(F)cc(F)c(F)c1F [Compound 67, 2-(benzylthio)-3-chloro-5-fluoro-6-(2,3,4,6-tetrafluorophenyl)pyridine] | < 1 µM |
| CCOC(=O)NS(=O)(=O)c1cc(-c2c(F)cc(F)c(F)c2F)c(F)cc1Cl [Compound 34, ethyl ((4-chloro-2′,3′,4′,6,6′-pentafluoro-[1,1′-biphenyl]-3-yl)sulfonyl)carbamate] | < 0.1 µM |
| COC(=O)CCNC(=O)[C@@H](C)Sc1cc(-c2c(F)c(F)c(F)c(F)c2F)c(F)cc1Cl (single isomer, unassigned) [Compound 6] | < 1 µM |
| CS(=O)(=O)NS(=O)(=O)c1cc(-c2c(F)cc(F)c(F)c2F)c(F)cc1Cl [Compound 48, 4-chloro-2′,3′,4′,6,6′-pentafluoro-N-(methylsulfonyl)-[1,1′-biphenyl]-3-sulfonamide] | < 1 µM |
| C[C@H](Sc1cc(-c2c(F)c(F)c(F)c(F)c2F)c(F)cc1Cl)C(=O)O [Compound 3, (S)-2-((4-chloro-2′,3′,4′,5′,6,6′-hexafluoro-[1,1′-biphenyl]-3-yl)thio)propanoic acid] | < 1 µM |
| C[C@@H](Sc1cc(-c2c(F)c(F)c(F)c(F)c2F)c(F)cc1Cl)C(=O)O [Compound 4, (R)-2-((4-chloro-2′,3′,4′,5′,6,6′-hexafluoro-[1,1′-biphenyl]-3-yl)thio)propanoic acid] | < 0.1 µM |
| CN(C)C(=O)NS(=O)(=O)c1cc(-c2c(F)c(F)c(F)c(F)c2F)c(F)cc1Cl [Compound 16, 4-chloro-N-(dimethylcarbamoyl)-2′,3′,4′,5′,6,6′-hexafluoro-[1,1′-biphenyl]-3-sulfonamide] | < 1 µM |
| C[C@@H](Sc1cc(-c2c(F)c(F)c(F)c(F)c2F)c(F)cc1Cl)C(=O)NCCC(=O)O [Compound 8, (R)-3-(2-((4-chloro-2′,3′,4′,5′,6,6′-hexafluoro-[1,1′-biphenyl]-3-yl)thio)propanamido)propanoic acid] | < 1 µM |
| O=C(NS(=O)(=O)c1cc(-c2c(F)cc(F)c(F)c2F)c(F)cc1Cl)C1CCOCC1 [Compound 28, N-((4-chloro-2′,3′,4′,6,6′-pentafluoro-[1,1′-biphenyl]-3-yl)sulfonyl)tetrahydro-2H-pyran-4-carboxamide] | < 1 µM |
| NS(=O)(=O)c1cc(-c2c(F)c(F)c(F)c(F)c2F)c(F)cc1Cl [Compound 15, 4-chloro-2′,3′,4′,5′,6,6′-hexafluoro-[1,1′-biphenyl]-3-sulfonamide] | < 1 µM |
| CCC(=O)N(OC)S(=O)(=O)c1cc(-c2c(F)cc(F)c(F)c2F)c(F)cc1Cl [Compound 76] | < 1 µM |
| CC(C)(C)OCC(=O)NS(=O)(=O)c1cc(-c2c(F)cc(F)c(F)c2F)c(F)cc1Cl [Compound 42, 2-(tert-butoxy)-N-((4-chloro-2′,3′,4′,6,6′-pentafluoro-[1,1′-biphenyl]-3-yl)sulfonyl)acetamide] | < 1 µM |
| CCC(=O)CS(=O)(=O)c1cc(-c2c(F)cc(F)c(F)c2F)c(F)cc1Cl [Compound 79] | < 0.1 µM |
| CC(C)(C)CC(=O)NS(=O)(=O)c1cc(-c2c(F)cc(F)c(F)c2F)c(F)cc1Cl [Compound 64, N-((4-chloro-2′,3′,4′,6,6′-pentafluoro-[1,1′-biphenyl]-3-yl)sulfonyl)-3,3-dimethylbutanamide] | < 0.1 µM |
| CC(=O)NS(=O)(=O)c1cc(-c2cc(F)c(F)c(F)c2F)c(F)cc1Cl [Compound 52, N-((4-chloro-2′,3′,4′,5′,6-pentafluoro-[1,1′-biphenyl]-3-yl)sulfonyl)acetamide] | < 0.1 µM |
| C=CCN(C(=O)CC)S(=O)(=O)c1cc(-c2c(F)cc(F)c(F)c2F)c(F)cc1Cl [Compound 74, N-allyl-N-((4-chloro-2′,3′,4′,6,6′-pentafluoro-[1,1′-biphenyl]-3-yl)sulfonyl)propionamide] | < 1 µM |
| C=C(C)C(=O)NS(=O)(=O)c1cc(-c2c(F)cc(F)c(F)c2F)c(F)cc1Cl [Compound 75, N-((4-chloro-2′,3′,4′,6,6′-pentafluoro-[1,1′-biphenyl]-3-yl)sulfonyl)methacrylamide] | < 0.1 µM |
| O=C(NS(=O)(=O)c1cc(-c2c(F)cc(F)c(F)c2F)c(F)cc1Cl)N1CCCCC1 [Compound 62, N-((4-chloro-2′,3′,4′,6,6′-pentafluoro-[1,1′-biphenyl]-3-yl)sulfonyl)piperidine-1-carboxamide] | < 1 µM |
